Source: article doi:10.1101/2020.02.20.955922
These are yes or no findings as the source states them, for the method shown. In cells and extracts the contact can be indirect. These calls come from enrichment with a bait or labelling near it, and not all partners need be listed. Tags and fused reporters may be left off the sequences shown.

T1: TSN2-TAPa (Tudor Staphylococcal Nuclease 2 with C-terminal TAPa tag) (Arabidopsis thaliana) (UniProt Q9FLT0)
T1 sequence: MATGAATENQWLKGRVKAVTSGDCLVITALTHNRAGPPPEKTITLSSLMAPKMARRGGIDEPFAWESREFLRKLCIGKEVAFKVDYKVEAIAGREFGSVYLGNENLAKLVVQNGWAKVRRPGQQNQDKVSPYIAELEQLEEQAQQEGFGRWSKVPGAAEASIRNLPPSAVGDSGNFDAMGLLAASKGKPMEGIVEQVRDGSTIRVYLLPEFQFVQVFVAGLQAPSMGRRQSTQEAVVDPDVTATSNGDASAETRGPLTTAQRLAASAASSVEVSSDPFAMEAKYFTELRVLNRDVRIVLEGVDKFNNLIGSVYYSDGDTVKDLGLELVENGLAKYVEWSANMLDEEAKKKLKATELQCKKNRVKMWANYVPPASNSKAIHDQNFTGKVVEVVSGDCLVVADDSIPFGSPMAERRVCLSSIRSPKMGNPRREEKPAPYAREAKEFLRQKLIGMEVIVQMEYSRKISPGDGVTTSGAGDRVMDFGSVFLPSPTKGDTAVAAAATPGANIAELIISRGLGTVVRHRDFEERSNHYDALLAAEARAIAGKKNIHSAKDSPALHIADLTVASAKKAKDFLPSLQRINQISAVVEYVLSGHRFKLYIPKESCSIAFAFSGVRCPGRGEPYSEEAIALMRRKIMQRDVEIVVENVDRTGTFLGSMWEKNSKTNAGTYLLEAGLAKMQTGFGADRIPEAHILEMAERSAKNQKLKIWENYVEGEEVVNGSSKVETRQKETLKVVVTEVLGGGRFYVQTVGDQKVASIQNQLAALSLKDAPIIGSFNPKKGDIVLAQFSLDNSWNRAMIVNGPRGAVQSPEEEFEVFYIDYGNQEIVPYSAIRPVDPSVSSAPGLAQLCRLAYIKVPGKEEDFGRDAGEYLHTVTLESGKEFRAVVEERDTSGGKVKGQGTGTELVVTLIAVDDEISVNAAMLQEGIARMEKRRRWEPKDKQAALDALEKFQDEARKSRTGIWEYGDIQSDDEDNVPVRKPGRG

B1: UBP1c (protein, UniProt Q9LJH8 1-427)
chain: MQNPRLKQHQQQQQQQAMMQQQALMQQHSLYHPGVLAPPQLEPVPSGNLPPGFDPSTCRSVYVGNIHTQVTEPLLQEIFTSTGPVESSKLIRKDKSSYGFVHYFDRRSAALAILSLNGRHLFGQPIKVNWAYATGQREDTSSHFNIFVGDLSPEVTDATLYQSFSVFSSCSDARVMWDQKTGRSRGFGFVSFRNQQDAQTAINEMNGKWLSSRQIRCNWATKGATSGDDKLSSDGKSVVELTTGSSEDGKETLNEETPENNSQFTTVYVGNLAPEVTQLDLHRYFHALGAGVIEEVRVQRDKGFGFVRYNTHPEAALAIQMGNTQPYLFNRQIKCSWGNKPTPPGTASNPLPPPAPAPVPGLSAADLLNYERQLALSKMASVNALMHQQGQHPLRQAHGINAAGATAAMYDGGFQNVAAAQQLMYYQ
B2: RHM2 (protein, UniProt Q9LPG6 1-667)
chain: MDDTTYKPKNILITGAAGFIASHVANRLIRNYPDYKIVVLDKLDYCSDLKNLDPSFSSPNFKFVKGDIASDDLVNYLLITENIDTIMHFAAQTHVDNSFGNSFEFTKNNIYGTHVLLEACKVTGQIRRFIHVSTDEVYGETDEDAAVGNHEASQLLPTNPYSATKAGAEMLVMAYGRSYGLPVITTRGNNVYGPNQFPEKMIPKFILLAMSGKPLPIHGDGSNVRSYLYCEDVAEAFEVVLHKGEIGHVYNVGTKRERRVIDVARDICKLFGKDPESSIQFVENRPFNDQRYFLDDQKLKKLGWQERTNWEDGLKKTMDWYTQNPEWWGDVSGALLPHPRMLMMPGGRLSDGSSEKKDVSSNTVQTFTVVTPKNGDSGDKASLKFLIYGKTGWLGGLLGKLCEKQGITYEYGKGRLEDRASLVADIRSIKPTHVFNAAGLTGRPNVDWCESHKPETIRVNVAGTLTLADVCRENDLLMMNFATGCIFEYDATHPEGSGIGFKEEDKPNFFGSFYSKTKAMVEELLREFDNVCTLRVRMPISSDLNNPRNFITKISRYNKVVDIPNSMTVLDELLPISIEMAKRNLRGIWNFTNPGVVSHNEILEMYKNYIEPGFKWSNFTVEEQAKVIVAARSNNEMDGSKLSKEFPEMLSIKESLLKYVFEPNKRT
B3: IF4E5 (protein, UniProt Q9FK59 1-221)
chain: MEVLDRRDDEIRDSGNMDSIKSHYVTDSVSEERRSRELKDGDHPLRYKFSIWYTRRTPGVRNQSYEDNIKKMVEFSTVEGFWACYCHLARSSLLPSPTDLHFFKDGIRPLWEDGANCNGGKWIIRFSKVVSARFWEDLLLALVGDQLDDADNICGAVLSVRFNEDIISVWNRNASDHQAVMGLRDSIKRHLKLPHAYVMEYKPHDASLRDNSSYRNTWLRG
B4: SnRK1.1 (endogenous) (protein, UniProt Q38997 1-512)
chain: MDGSGTGSRSGVESILPNYKLGRTLGIGSFGRVKIAEHALTGHKVAIKILNRRKIKNMEMEEKVRREIKILRLFMHPHIIRLYEVIETPTDIYLVMEYVNSGELFDYIVEKGRLQEDEARNFFQQIISGVEYCHRNMVVHRDLKPENLLLDSKCNVKIADFGLSNIMRDGHFLKTSCGSPNYAAPEVISGKLYAGPEVDVWSCGVILYALLCGTLPFDDENIPNLFKKIKGGIYTLPSHLSPGARDLIPRMLVVDPMKRVTIPEIRQHPWFQAHLPRYLAVPPPDTVQQAKKIDEEILQEVINMGFDRNHLIESLRNRTQNDGTVTYYLILDNRFRASSGYLGAEFQETMEGTPRMHPAESVASPVSHRLPGLMEYQGVGLRSQYPVERKWALGLQSRAHPREIMTEVLKALQDLNVCWKKIGHYNMKCRWVPNSSADGMLSNSMHDNNYFGDESSIIENEAAVKSPNVVKFEIQLYKTRDDKYLLDLQRVQGPQFLFLDLCAAFLAQLRVL
B5: TSN1 (endogenous) (protein, UniProt Q8VZG7 1-991)
chain: MATGAENQWLKGRVKAVTSGDCLVITALSHNRAGPPPEKTITFSSLMAPKMARRGGIDEPFAWESKEFLRKLCIGKEVAFKVDYKVEAIAGREFGSVFLGNENLAKLVVKTGWAKVREPGQQNQDKVSPYIKELLQLEELAKQEGYGRWSKVPGAAEASIRNLPPSAIGDSAGFDAMGLLAANKGKPMEGIVEQVRDGSTIRVYLLPEFQFVQVFVAGVQAPSMGRRTTNGSVVETVPDEPNGDVSAESRGPLTTAQRLAASAASSVEVSSDPFATEAKYFTEHRVLSRDVRIVLEGVDKFNNLIGSVHYSDGETVKDLGLELVENGLAKFVEWSANMMEEEAKKKLKAAELQCKKDKVKMWANYVPPATNSKAIHDQNFTGKVVEVVSGDCLIVADDAVPFGSPAAERRVCLSSIRSPKMGNPRREEKPAPYAREAREFLRQRLIGKQVIVQMEYSRKVTQGDGPTTSGAADRFMDFGSVFLPSAAKADSDEVTAPPAAAIAGSQPVGVNIAELVLVRGFGNVVRHRDFEERSNHYDALLAAEARALAGKKGIHSAKESPAMHITDLTVSAAKKAKDFLPSLQRIRRIPAVVEYVLSGHRFKLYIPKITCSIAFSFSGVRCPGRGEPYSEEAISVMRRRIMQRDVEIEVETVDRTGTFLGSMWESRTNVATVLLEAGLAKMQTSFGADRIAEAHLLEQAERSAKNQKLKIWENYVEGEEVSNGNTNTVETRQKETLKVVVTEVLGGGRFYVQSAGDQKIASIQNQLASLSIKDAPIIGSFNPKRGDIVLAQFSLDNSWNRAMIVTAPRAAVQSPDEKFEVFYIDYGNQETVPYSAIRPIDPSVSAAPGLAQLCRLAYIKVPSLEDDFGPEAGEYLHTVTLGSGKEFKAVIEERDTSGGKVKGQGTGTEFVVTLIAVDDEISVNAAMLQEGIARMEKRQKWGHKGKQAALDALEKFQEEARKSRIGIWQYGDIESDDEDTGPARKPAGGRR
B6: SnRK1.2 (endogenous) (protein, UniProt P92958 1-512)
chain: MDHSSNRFGNNGVESILPNYKLGKTLGIGSFGKVKIAEHVVTGHKVAIKILNRRKIKNMEMEEKVRREIKILRLFMHPHIIRQYEVIETTSDIYVVMEYVKSGELFDYIVEKGRLQEDEARNFFQQIISGVEYCHRNMVVHRDLKPENLLLDSRCNIKIADFGLSNVMRDGHFLKTSCGSPNYAAPEVISGKLYAGPEVDVWSCGVILYALLCGTLPFDDENIPNLFKKIKGGIYTLPSHLSSEARDLIPRMLIVDPVKRITIPEIRQHRWFQTHLPRYLAVSPPDTVEQAKKINEEIVQEVVNMGFDRNQVLESLRNRTQNDATVTYYLLLDNRFRVPSGYLESEFQETTDSGSNPMRTPEAGASPVGHWIPAHVDHYGLGARSQVPVDRKWALGLQSHAHPREIMNEVLKALQELNVCWKKIGHYNMKCRWVPGLADGQNTMVNNQLHFRDESSIIEDDCAMTSPTVIKFELQLYKAREEKYLLDIQRVNGPQFLFLDLCAAFLTELRVI
B7: VCS (protein, UniProt Q9LTT8 1-1344)
chain: MASSPGNTNPHNTPPFDLGILFKPSSNPYPPPAASYPPPTGPFLHNQYDQQHYAPPGISAQPSPVTQQQQDVSSSSAATNLHPQRTLSYPTPPLNLQSPRSNHNPGTHILALLNNTNNGAPVANQEPSHQLPVVNHNEIARSFPGGSGPIRVPSCKLPKGRRLIGEHAVYDVDVRLQGEIQPQLEVTPITKYGSDPQLVVGRQIAVNKVYICYGLKGGNIRVLNINTALRSLFRGHSQRVTDMAFFAEDVDMLASVSLDGKVFVWKISEGSEGEDQPQITGKIVLALQILGEEDTKHPRVCWHCHKQEILVVSIGKHVLRIDTTKVGRGEVFSAEAPLQCPLDKLIDGVQIVGKHDGEVTDLSMCQWMTTRLVSSSVDGTIKIWQDRKAQPLVVLRPHDGHPVSSATFVTSPERPDHIILITGGPLNREMKIWVSAGEEGWLLPADAESWRCTQTLDLKSSTEPRAEEAFFNQVIALSEAGLLLLANAKRNALYAVHLDYGSSPVGTRMDYLSEFTVTMPILSFIGTNDPPEEPIVKVYCVQTLAIQQYTLDLCLCLPPPIENMGLEKSDSSVSREANLVEGMSEPSGLKPTDLPSVDSVPKPSIIVNRSESANKLSFPSAEATSQAIVPPNGEPKTSGLPSQTSGAGSAYATLPQLPLSPRLSSKLSGYHTPVEAIEPVIPHHELGGKTPSADYSVDRQMDAVGERNLDVSSVEEISRSKDSNVTPDDDVSGMRSPSAFFKHPTHLVTPSEILMGVSSAEASITTEDRRDRDANIQDVNNDPRDTEVEVKEISEARSTQNGEINDHDETENCTSENREKVFCSQVSNLSTEMARDCYPSTEGTFIPGESKAYGQPIKAGDESGVDSRGGPAKLLKGKKQKAKNSQGPGLSSTSSNVANLADSFNEQSQSLSHPMTDLLPQLLAMQETMNQVMASQKEMQRQLSNAATGPIGKESKRLEVALGRMIEKSSKSNADALWARIQEETVKNEKALRDHAQQIVNATTNFMSKELNAMFEKTIKKELAAIGPALARSVVPVIEKTVSSAITESFQRGIGDKAVNQLDKSVNIKLEATVARQIQAQFQTSGKQALQEGLRSSVESSVIPSFEKACKAMFDQIDSAFQKGIAEHTNAAQQRFDSGHSQLAHTLKESITSASSVAQALSRELAETQRNLLALAAAGANSGGSNSLVTQLSGGPLGALLEKVEAPMDPTTELSRLISERKYEESFTSALQRSDVSIVSWLCSQVDLRGLLAMNPLPLSQGVLLSLLQQLACDISKDTSRKLAWMTDVVAAINPSDQMIAVHARPIFEQVYQILHHHRNAPGSDVSAIRLIMHVINSMLMGCK

Biological target: T1, TSN2-TAPa (Tudor Staphylococcal Nuclease 2 with C-terminal TAPa tag) (Arabidopsis thaliana)
Test: affinity purification with mass spectrometry

Molecule	binding
TCTP	binds
PATL1	binds
SKP1	binds
RPS6	binds
Rbp47	binds
IF4A3	binds
MC1	binds
HSP70	binds
B1	binds
B2	binds
B3	binds
B4	binds
B5	binds
B6	binds
B7	binds
